At least one structure is not confirmed: it was looked up by name or label, or the drawing left a doubt.
Tested on: Immature Sprague Dawley CD (SD) BR female rats
Experiment: In vivo Rat Follicle Maturation Assay (ovulated oocytes after r-hCG)

COc1ccc(Cc2nccc3cc(OC)c(OC)cc23)cc1OC [Papavarine]
Follicular growth activity with Low FSH?: NO
